In paper doi:10.1101/2025.05.27.654799 one finds binding data, which are given here for one molecule.

By UniProt entry, the sequences of proteins in these tests, tags left out. Where a name states a change or a piece, a line headed by the entry shows the natural chain unless it says otherwise. Chains listed by the source or under a name are the forms on record and can include a tag or linker.
FGFR1 N546K/R661P-BirA*-Flag (P11362, form named): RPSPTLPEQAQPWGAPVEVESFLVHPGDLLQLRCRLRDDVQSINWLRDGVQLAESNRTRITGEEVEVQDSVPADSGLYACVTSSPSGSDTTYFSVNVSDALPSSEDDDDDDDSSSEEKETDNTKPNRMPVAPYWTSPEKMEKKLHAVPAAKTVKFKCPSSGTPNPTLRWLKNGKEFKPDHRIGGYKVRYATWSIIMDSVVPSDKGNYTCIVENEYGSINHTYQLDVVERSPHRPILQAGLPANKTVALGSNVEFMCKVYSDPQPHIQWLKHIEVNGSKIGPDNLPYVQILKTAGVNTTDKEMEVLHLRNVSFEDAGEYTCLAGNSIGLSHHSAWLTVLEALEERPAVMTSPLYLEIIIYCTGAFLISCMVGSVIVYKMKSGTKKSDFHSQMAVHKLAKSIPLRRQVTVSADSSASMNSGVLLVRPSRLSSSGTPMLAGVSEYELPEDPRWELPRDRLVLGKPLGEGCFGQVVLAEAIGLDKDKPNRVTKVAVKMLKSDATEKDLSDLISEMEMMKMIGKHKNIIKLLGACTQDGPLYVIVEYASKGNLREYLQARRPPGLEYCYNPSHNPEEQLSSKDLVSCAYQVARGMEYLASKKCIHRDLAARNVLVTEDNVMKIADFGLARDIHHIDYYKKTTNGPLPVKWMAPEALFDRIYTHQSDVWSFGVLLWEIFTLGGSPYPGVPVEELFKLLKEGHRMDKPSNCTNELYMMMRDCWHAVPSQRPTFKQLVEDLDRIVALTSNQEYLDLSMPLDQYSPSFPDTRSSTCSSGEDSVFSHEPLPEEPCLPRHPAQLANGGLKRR
FGFR1 N546K-BirA*-Flag (P11362, form named): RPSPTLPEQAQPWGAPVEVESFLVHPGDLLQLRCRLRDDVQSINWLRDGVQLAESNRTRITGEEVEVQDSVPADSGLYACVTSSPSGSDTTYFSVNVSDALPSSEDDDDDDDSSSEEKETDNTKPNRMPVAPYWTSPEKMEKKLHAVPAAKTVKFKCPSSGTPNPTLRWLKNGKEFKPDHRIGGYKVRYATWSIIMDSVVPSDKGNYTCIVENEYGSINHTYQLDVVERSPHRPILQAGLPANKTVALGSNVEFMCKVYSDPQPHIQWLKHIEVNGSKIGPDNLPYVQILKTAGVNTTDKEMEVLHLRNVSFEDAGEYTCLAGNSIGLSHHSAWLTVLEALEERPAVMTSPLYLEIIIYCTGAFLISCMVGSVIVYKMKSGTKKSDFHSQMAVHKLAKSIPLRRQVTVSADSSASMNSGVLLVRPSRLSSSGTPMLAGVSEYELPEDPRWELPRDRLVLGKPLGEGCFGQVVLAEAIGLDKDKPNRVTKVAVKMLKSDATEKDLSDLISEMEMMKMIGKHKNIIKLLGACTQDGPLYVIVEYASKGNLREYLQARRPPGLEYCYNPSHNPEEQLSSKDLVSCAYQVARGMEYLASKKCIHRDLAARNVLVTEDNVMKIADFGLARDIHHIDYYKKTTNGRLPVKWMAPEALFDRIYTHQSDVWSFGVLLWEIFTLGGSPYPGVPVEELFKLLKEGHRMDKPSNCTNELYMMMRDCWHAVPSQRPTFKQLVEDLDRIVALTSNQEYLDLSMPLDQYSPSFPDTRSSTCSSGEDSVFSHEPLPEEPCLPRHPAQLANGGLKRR

Results are given in words; binding and its absence hold for the method and conditions named. In cells and extracts the contact can be indirect. Some binding calls cover weakened binding; strength is not graded here.

Assay [1] addresses FGFR1 N546K/R661P-BirA*-Flag (human) (UniProt P11362). Put plainly: co-IP.
In assay [2] the target is FGFR1 N546K-BirA*-Flag (human) (UniProt P11362). The experiment in a line: co-IP.

B1: phospholipase C gamma 1 (PLCγ/PLCG1) (enzyme, UniProt P19174 1-1290)
chain: MAGAASPCANGCGPGAPSDAEVLHLCRSLEVGTVMTLFYSKKSQRPERKTFQVKLETRQITWSRGADKIEGAIDIREIKEIRPGKTSRDFDRYQEDPAFRPDQSHCFVILYGMEFRLKTLSLQATSEDEVNMWIKGLTWLMEDTLQAPTPLQIERWLRKQFYSVDRNREDRISAKDLKNMLSQVNYRVPNMRFLRERLTDLEQRSGDITYGQFAQLYRSLMYSAQKTMDLPFLEASTLRAGERPELCRVSLPEFQQFLLDYQGELWAVDRLQVQEFMLSFLRDPLREIEEPYFFLDEFVTFLFSKENSVWNSQLDAVCPDTMNNPLSHYWISSSHNTYLTGDQFSSESSLEAYARCLRMGCRCIELDCWDGPDGMPVIYHGHTLTTKIKFSDVLHTIKEHAFVASEYPVILSIEDHCSIAQQRNMAQYFKKVLGDTLLTKPVEISADGLPSPNQLKRKILIKHKKLAEGSAYEEVPTSMMYSENDISNSIKNGILYLEDPVNHEWYPHYFVLTSSKIYYSEETSSDQGNEDEEEPKEVSSSTELHSNEKWFHGKLGAGRDGRHIAERLLTEYCIETGAPDGSFLVRESETFVGDYTLSFWRNGKVQHCRIHSRQDAGTPKFFLTDNLVFDSLYDLITHYQQVPLRCNEFEMRLSEPVPQTNAHESKEWYHASLTRAQAEHMLMRVPRDGAFLVRKRNEPNSYAISFRAEGKIKHCRVQQEGQTVMLGNSEFDSLVDLISYYEKHPLYRKMKLRYPINEEALEKIGTAEPDYGALYEGRNPGFYVEANPMPTFKCAVKALFDYKAQREDELTFIKSAIIQNVEKQEGGWWRGDYGGKKQLWFPSNYVEEMVNPVALEPEREHLDENSPLGDLLRGVLDVPACQIAIRPEGKNNRLFVFSISMASVAHWSLDVAADSQEELQDWVKKIREVAQTADARLTEGKIMERRKKIALELSELVVYCRPVPFDEEKIGTERACYRDMSSFPETKAEKYVNKAKGKKFLQYNRLQLSRIYPKGQRLDSSNYDPLPMWICGSQLVALNFQTPDKPMQMNQALFMTGRHCGYVLQPSTMRDEAFDPFDKSSLRGLEPCAISIEVLGARHLPKNGRGIVCPFVEIEVAGAEYDSTKQKTEFVVDNGLNPVWPAKPFHFQISNPEFAFLRFVVYEEDMFSDQNFLAQATFPVKGLKTGYRAVPLKNNYSEDLELASLLIKIDIFPAKENGDLSPFSGTSLRERGSDASGQLFHGRAREGSFESRYQQPFEDFRISQEHLADHFDSRERRAPRRTRVNGDNRL
With B1, the binding result in assay [1] and in assay [2] was “binds” throughout.
